Experimental data: PMC10587083

Chains of the proteins cited; added tags and fusions are not shown. Residues count along the entry.
UniProt O43567, residues 35-381: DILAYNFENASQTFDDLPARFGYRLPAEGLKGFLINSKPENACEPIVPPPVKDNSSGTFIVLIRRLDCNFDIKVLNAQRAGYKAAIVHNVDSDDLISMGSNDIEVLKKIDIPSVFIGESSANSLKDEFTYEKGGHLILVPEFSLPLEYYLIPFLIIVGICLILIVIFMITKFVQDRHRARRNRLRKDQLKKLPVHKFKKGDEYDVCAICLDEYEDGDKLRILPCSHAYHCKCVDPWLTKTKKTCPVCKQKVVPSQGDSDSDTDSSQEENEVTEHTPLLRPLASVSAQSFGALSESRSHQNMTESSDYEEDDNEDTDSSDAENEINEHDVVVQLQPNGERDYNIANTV
UniProt P18850: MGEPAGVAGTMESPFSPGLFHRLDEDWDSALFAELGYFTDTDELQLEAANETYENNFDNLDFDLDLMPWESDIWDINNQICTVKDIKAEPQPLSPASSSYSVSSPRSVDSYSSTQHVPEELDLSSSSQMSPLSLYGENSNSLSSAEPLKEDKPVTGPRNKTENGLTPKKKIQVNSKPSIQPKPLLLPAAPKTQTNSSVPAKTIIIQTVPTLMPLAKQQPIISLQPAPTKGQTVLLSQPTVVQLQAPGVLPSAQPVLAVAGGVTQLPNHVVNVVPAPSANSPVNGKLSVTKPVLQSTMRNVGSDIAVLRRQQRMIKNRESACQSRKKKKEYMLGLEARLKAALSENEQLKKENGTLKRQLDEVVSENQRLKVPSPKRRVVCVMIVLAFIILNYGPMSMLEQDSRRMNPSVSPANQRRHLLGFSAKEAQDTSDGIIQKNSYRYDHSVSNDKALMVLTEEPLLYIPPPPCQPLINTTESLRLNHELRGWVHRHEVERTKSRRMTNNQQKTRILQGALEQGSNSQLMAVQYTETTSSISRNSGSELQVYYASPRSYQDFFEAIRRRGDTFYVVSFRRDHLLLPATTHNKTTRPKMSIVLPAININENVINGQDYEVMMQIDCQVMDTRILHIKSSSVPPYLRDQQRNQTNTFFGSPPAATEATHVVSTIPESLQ
UniProt O75460, residues 19-977: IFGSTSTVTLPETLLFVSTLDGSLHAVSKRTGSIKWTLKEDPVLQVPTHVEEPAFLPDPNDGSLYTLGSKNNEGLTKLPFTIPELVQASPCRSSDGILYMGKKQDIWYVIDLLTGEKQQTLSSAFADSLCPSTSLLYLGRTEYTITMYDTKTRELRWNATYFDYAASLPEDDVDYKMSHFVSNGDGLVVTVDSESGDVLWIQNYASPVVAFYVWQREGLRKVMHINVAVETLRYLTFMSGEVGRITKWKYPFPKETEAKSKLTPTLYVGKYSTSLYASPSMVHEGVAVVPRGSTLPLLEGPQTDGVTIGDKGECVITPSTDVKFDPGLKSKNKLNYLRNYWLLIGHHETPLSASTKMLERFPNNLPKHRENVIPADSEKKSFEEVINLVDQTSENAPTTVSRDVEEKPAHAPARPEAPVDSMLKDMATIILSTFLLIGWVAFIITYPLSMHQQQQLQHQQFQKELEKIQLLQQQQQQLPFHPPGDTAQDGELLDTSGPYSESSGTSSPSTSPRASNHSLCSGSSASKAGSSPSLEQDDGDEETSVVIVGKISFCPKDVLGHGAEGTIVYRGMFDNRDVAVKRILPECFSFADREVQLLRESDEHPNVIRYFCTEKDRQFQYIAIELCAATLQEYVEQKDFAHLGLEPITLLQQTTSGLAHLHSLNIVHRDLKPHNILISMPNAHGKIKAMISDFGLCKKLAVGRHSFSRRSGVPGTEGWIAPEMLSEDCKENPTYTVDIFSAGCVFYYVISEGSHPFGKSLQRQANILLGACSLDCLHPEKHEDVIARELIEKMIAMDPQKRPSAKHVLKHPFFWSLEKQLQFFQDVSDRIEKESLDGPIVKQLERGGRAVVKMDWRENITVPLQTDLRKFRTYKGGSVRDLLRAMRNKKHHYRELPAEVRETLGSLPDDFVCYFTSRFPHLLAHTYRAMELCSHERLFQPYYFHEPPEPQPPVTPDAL
UniProt Q9NZJ5, residues 30-1116: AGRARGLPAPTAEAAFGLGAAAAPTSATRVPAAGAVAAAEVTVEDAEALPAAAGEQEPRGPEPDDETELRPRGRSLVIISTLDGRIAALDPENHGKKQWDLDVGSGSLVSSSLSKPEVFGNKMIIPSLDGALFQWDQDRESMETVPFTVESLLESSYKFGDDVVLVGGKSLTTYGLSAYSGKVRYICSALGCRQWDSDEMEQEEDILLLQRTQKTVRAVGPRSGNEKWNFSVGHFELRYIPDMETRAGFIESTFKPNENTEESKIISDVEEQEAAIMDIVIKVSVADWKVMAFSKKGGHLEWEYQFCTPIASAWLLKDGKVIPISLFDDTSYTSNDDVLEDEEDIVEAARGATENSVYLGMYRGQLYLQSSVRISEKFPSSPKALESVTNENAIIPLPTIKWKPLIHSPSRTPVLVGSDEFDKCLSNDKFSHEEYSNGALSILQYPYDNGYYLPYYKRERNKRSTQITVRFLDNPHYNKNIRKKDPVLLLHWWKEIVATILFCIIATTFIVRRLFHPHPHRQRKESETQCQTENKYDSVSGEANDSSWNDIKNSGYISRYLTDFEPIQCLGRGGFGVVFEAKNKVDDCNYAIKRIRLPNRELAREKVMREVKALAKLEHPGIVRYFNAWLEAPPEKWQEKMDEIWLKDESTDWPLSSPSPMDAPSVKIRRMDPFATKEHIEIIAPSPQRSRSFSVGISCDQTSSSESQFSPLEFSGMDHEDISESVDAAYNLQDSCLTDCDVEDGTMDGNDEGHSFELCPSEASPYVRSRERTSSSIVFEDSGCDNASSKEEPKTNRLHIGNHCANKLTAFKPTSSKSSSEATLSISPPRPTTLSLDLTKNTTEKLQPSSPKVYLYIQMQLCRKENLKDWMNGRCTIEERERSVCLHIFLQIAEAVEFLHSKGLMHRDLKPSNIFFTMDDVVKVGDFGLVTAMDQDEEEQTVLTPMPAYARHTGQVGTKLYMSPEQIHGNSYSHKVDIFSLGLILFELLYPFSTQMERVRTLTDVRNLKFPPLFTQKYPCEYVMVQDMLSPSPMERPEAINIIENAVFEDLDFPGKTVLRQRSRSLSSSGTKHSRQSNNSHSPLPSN
UniProt Q86WV6: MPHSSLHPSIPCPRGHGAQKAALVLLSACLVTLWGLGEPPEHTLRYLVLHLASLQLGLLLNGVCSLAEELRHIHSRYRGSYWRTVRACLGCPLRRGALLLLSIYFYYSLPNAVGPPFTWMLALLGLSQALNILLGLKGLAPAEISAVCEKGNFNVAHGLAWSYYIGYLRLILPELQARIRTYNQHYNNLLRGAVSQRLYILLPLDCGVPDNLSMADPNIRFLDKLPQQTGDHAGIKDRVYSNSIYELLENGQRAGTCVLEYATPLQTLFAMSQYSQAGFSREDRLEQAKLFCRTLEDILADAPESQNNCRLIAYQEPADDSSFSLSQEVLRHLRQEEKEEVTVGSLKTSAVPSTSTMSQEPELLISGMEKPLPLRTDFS

B1: TRIM29 (hit of the RNF13 IP-MS) (protein, UniProt Q14134 1-588)
chain: MEAADASRSNGSSPEARDARSPSGPSGSLENGTKADGKDAKTTNGHGGEAAEGKSLGSALKPGEGRSALFAGNEWRRPIIQFVESGDDKNSNYFSMDSMEGKRSPYAGLQLGAAKKPPVTFAEKGELRKSIFSESRKPTVSIMEPGETRRNSYPRADTGLFSRSKSGSEEVLCDSCIGNKQKAVKSCLVCQASFCELHLKPHLEGAAFRDHQLLEPIRDFEARKCPVHGKTMELFCQTDQTCICYLCMFQEHKNHSTVTVEEAKAEKETELSLQKEQLQLKIIEIEDEAEKWQKEKDRIKSFTTNEKAILEQNFRDLVRDLEKQKEEVRAALEQREQDAVDQVKVIMDALDERAKVLHEDKQTREQLHSISDSVLFLQEFGALMSNYSLPPPLPTYHVLLEGEGLGQSLGNFKDDLLNVCMRHVEKMCKADLSRNFIERNHMENGGDHRYVNNYTNSFGGEWSAPDTMKRYSMYLTPKGGVRTSYQPSSPGRFTKETTQKNFNNLYGTKGNYTSRVWEYSSSIQNSDNDLPVVQGSSSFSLKGYPSLMRSQSPKAQPQTWKSGKQTMLSHYRPFYVNKGNGIGSNEAP

Target: HA-RNF13 (RING finger protein 13) (UniProt O43567)
Test: affinity purification with mass spectrometry; anti-HA immunoprecipitate against anti-IgG immunoprecipitate from transfected cells; eluate on SDS-PAGE, silver stain, bands cut out, LC-MS/MS; candidates present in anti-HA, absent in anti-IgG, unique peptides > 2

Molecule	binding
ATF6 (from UniProt P18850 1-670)	no binding
IRE1 (from UniProt O75460 19-977)	no binding
PERK (from UniProt Q9NZJ5 30-1116)	no binding
STING (sought in the RNF13 IP-MS) (from UniProt Q86WV6 1-379)	no binding
B1	binds

These are yes or no findings as the source states them, for the method shown. In cells and extracts the contact can be indirect. A yes stands for co-enrichment or nearness to the bait. Other partners may have been found. No binding means not detected with the bait.
